This passage reports IC50 results from PMC5074515 (PLoS ONE, 2016).

Sequences of proteins named here, by UniProt entry; tags and fusion partners are left off. A change or cut given only in a name is not applied to a line headed by its entry.
UniProt P9WN95: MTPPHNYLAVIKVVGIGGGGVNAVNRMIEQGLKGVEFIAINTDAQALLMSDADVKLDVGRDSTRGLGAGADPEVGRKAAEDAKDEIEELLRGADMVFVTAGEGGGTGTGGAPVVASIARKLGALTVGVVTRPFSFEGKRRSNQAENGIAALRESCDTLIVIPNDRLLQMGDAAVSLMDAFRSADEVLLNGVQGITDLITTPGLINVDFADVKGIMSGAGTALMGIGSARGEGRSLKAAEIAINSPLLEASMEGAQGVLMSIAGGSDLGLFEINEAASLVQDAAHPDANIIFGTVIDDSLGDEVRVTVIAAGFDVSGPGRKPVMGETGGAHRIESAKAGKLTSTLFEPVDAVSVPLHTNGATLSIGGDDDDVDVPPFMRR

Structures can show the parent of a compound that is named as a salt. Where two headings read alike, the source gives them in different places.

The experiment deals with Mtb FtsZ (Mycobacterium tuberculosis, UniProt P9WN95). Put plainly: biochemical.

By IC50 is commonly meant the concentration needed to halve the response being measured.

In the case of `COc1cc2c(c(OC)c1OC)-c1ccc(OC)c(=O)cc1[C@@H](NC(C)=O)CC2` [Compound 1, Colchicine], where the note is “mean ± standard deviation, at least three times per assay, NA = not active up to 100 μM, read-out: Mtb FtsZ Polymerization IC50”, the half-inhibitory concentration (IC50) was determined as 104 ± 2 µM.

`CC/C(=C(\c1ccccc1)c1ccc(OCCN(C)C)cc1)c1ccccc1` [Compound 11, Tamoxifen citrate] gave a half-inhibitory concentration (IC50) of 40.6 ± 17.9 µM.
